In paper PMC8058344, “ARIH1 signaling promotes anti-tumor immunity by targeting PD-L1 for proteasomal degradation” (Nature Communications, 2021) one finds binding data, which are given here for two substances.

The chains behind the UniProt entries cited, without tags or fusion partners. Residues count along the entry.
UniProt Q9Y4X5: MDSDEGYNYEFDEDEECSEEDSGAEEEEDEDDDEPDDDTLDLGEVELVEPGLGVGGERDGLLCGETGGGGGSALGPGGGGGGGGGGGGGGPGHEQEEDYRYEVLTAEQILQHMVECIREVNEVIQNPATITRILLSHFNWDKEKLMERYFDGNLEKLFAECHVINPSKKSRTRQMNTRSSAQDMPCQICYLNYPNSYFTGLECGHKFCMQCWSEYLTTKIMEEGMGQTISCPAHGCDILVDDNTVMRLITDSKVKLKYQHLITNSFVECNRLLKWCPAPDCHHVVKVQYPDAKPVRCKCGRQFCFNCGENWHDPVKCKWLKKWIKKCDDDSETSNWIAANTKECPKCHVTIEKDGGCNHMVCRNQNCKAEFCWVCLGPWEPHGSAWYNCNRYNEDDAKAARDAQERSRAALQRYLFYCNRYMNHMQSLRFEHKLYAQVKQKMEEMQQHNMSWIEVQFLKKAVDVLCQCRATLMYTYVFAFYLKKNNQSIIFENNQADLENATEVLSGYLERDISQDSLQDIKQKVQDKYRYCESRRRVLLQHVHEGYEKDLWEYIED
UniProt Q9NZQ7, residues 19-290: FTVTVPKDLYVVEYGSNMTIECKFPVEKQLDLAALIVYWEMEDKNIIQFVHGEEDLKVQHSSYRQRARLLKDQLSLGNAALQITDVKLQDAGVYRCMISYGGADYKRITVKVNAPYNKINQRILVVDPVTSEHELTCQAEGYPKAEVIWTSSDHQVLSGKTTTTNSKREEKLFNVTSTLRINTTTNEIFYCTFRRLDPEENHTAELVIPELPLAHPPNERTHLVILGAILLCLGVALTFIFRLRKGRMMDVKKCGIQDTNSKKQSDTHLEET
UniProt P49840: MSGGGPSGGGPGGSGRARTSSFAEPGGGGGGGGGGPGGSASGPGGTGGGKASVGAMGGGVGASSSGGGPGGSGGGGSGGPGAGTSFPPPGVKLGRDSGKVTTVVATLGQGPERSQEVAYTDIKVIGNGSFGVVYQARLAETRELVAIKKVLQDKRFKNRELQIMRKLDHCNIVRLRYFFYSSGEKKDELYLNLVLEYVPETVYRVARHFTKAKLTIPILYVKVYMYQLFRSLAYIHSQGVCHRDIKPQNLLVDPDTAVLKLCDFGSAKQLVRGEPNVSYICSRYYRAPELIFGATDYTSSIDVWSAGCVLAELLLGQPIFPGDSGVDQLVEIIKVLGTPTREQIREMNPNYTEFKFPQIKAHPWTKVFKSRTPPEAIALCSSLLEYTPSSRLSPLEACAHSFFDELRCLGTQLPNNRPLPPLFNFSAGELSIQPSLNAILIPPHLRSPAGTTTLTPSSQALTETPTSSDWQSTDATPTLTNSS

Assay [1] concerns the target HA-ARIH1 (WT) (UniProt Q9Y4X5). Put plainly: co-IP; HEK293T cells transfected with HA-ARIH1 (HA-tagged empty vector as negative control); endogenous PD-L1 detected by blot.
Assay [2] has as its target Flag-PD-L1 (WT) (human) (UniProt Q9NZQ7). Put plainly: proximity ligation; Duolink PLA in fixed HEK293T cells transfected with Flag-PD-L1, with or without 10 μM ES-072 for 12 h.
For assay [3] the target is unchanged. In words: co-IP; Flag-PD-L1 (WT or mutant) immunoprecipitated from transfected HEK293T lysates, blot for endogenous GSK3α/GSK3β or HA-ARIH1; RIPA buffer (1% Triton X-100, 100 mM Tris-HCl pH 8.8, 100 mM NaCl, 0.5 mM EDTA), 4 °C; cells with or without 10 μM ES-072, tunicamycin or 10 μM MG132.

No constants are given. Whether binding was seen depends on the method and setting. Binding seen in cells or lysates may run through a third protein. Some entries that bind do so weakly or less than the wild type.

Turning to “endogenous PD-L1 (from UniProt Q9NZQ7 19-290)”, the binding entry in assay [1] is reported as “binds”. Regarding “endogenous GSK3α (from UniProt P49840 1-483) (enzyme)”, the binding result in assay [2] and in assay [3] was “binds” in each case.
